Experimental data taken from US20260191920A1, “METHODS AND COMPOSITIONS FOR TREATING AND PREVENTING CENTRAL NERVOUS SYSTEM DISORDERS AND OTHER CONDITIONS CAUSED BY GUT MICROBIAL DYSBIOSIS” (HOLOBIOME, INC., priority 2019, published 2026).

System: germ-free mice
Assay: Germ-free mice on a diet deficient in tyrosine and queuine, queuine added to the diet (Marks & Farkas)
Format: in vivo

Nc1nc2[nH]cc(CN[C@H]3C=C[C@H](O)[C@@H]3O)c2c(=O)[nH]1 [queuine, 2-amino-5-((((1S,4S,5R)-4,5-dihydroxy-2-cyclopenten-1-yl)amino)methyl)-1,7-dihydro-4H-pyrrolo (2,3-d) pyrimidin-4-one]
germ free mouse's daily dietary queuine requirement (upper bound) (27.7 ng/mL x 7 mL liquid diet per day): 193.9 ng
daily dietary queuine requirement per body weight (mouse weight 0.04 kg): approximately 0.00485 mg/kg per day
